Values of other authors, collected in US11220534B2, “Treatment of neurological diseases” (Lancaster University Business Enterprises Limited, priority 2016, dated 2022).
At least one structure is not confirmed: it was looked up by name or label, or the drawing left a doubt.

Tested on: MPTP mouse model of Parkinson's disease
Details: cited from earlier work

**Q.** For `CCCCCCCCCCCCCCCC(=O)N[C@@H](CCC(=O)NCCCC[C@H](NC(=O)[C@H](C)NC(=O)[C@H](C)NC(=O)[C@H](CCC(N)=O)NC(=O)CNC(=O)[C@H](CCC(=O)O)NC(=O)[C@H](CC(C)C)NC(=O)[C@H](Cc1ccc(O)cc1)NC(=O)[C@H](CO)NC(=O)[C@H](CO)NC(=O)[C@@H](NC(=O)[C@H](CC(=O)O)NC(=O)[C@H](CO)NC(=O)[C@@H](NC(=O)[C@H](Cc1ccccc1)NC(=O)[C@@H](NC(=O)CNC(=O)[C@H](CCC(=O)O)NC(=O)[C@H](C)NC(=O)[C@@H](N)Cc1cnc[nH]1)[C@@H](C)O)[C@@H](C)O)C(C)C)C(=O)N[C@@H](CCC(=O)O)C(=O)N[C@@H](Cc1ccccc1)C(=O)N[C@H](C(=O)N[C@@H](C)C(=O)N[C@@H](Cc1c[nH]c2ccccc12)C(=O)N[C@@H](CC(C)C)C(=O)N[C@H](C(=O)N[C@@H](CCCNC(=N)N)C(=O)NCC(=O)N[C@@H](CCCNC(=N)N)C(=O)NCC(=O)O)C(C)C)[C@@H](C)CC)C(=O)O` [liraglutide, Liraglutide], which “motor impairment, chronic inflammation in the brain and loss of dopaminergic neurons induced by MPTP” value is on record?
**A.** The value was “good effects in preventing the motor impairment, chronic inflammation in the brain, and loss of dopaminergic neurons”.
